The values that follow come from PMC11490702.

No constants are given. Whether binding was seen depends on the method and setting. Binding seen in cells or lysates may run through a third protein. Some entries that bind do so weakly or less than the wild type. Tags and fused reporters may be left off the sequences shown.

Assay [1] addresses T1, Flag-OGT-S20A (UniProt O15294).
T1 sequence: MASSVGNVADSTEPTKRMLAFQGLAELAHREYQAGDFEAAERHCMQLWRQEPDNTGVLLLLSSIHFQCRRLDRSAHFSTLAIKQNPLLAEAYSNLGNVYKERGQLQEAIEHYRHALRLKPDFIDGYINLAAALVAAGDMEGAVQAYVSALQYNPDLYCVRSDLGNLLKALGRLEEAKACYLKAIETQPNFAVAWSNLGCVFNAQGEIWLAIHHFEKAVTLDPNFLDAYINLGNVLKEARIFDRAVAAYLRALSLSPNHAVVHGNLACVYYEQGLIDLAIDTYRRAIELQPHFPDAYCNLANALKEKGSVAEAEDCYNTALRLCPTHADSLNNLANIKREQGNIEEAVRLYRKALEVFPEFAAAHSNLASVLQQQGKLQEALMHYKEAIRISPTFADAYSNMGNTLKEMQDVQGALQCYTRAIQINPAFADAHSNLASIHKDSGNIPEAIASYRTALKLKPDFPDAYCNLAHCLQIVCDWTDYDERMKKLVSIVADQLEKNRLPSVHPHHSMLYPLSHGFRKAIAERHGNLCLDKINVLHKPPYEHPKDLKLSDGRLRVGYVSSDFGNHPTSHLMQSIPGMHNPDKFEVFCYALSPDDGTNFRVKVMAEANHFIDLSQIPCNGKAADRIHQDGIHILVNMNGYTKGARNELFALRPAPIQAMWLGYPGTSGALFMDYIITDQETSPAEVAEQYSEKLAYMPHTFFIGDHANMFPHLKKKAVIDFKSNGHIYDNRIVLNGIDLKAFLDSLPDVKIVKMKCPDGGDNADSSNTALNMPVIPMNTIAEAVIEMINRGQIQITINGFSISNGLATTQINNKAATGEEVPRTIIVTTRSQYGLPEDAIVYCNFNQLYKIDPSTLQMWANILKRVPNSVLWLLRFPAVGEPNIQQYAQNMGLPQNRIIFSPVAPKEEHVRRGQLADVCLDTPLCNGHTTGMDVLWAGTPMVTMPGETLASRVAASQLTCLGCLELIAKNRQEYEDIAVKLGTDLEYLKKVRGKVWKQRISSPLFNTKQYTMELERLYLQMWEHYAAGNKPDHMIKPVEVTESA
As to the kind of experiment: co-IP; cells co-transfected with Flag-OGT (WT or S20A) and HA-14-3-3 isoforms; immunoprecipitated with anti-Flag.

Assay [2] addresses T2, Flag-OGT-WT (UniProt O15294).
T2 sequence: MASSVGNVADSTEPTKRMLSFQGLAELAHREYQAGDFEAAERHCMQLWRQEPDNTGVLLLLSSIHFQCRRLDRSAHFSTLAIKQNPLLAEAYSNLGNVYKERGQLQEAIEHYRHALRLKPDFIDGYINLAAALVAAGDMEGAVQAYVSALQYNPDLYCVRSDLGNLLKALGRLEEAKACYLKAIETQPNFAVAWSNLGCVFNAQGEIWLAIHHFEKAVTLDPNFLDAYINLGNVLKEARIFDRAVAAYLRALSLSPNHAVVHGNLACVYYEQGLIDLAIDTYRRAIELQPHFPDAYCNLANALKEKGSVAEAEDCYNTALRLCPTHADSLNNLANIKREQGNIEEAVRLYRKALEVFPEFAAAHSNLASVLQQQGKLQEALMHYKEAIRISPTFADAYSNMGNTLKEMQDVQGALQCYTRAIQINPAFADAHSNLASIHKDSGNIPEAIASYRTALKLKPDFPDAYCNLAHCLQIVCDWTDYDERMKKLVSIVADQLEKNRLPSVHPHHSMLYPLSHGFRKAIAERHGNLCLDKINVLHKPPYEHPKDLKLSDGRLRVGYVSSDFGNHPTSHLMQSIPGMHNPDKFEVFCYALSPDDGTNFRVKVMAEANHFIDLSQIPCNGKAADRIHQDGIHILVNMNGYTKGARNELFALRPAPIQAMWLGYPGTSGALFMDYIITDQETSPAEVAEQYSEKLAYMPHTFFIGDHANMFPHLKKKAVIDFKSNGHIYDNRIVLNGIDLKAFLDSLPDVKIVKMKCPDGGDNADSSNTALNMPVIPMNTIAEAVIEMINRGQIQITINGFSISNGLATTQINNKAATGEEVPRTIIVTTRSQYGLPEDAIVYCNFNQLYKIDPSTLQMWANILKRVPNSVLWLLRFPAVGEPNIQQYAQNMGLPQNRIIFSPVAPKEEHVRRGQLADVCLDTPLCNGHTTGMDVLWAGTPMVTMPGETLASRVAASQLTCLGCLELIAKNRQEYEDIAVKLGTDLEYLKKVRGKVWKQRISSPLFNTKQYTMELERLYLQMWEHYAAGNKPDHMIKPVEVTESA
The assay is described as above.

In assay [3] the target is T3, endogenous Chk1 (human (endogenous in HeLa or HEK293T)) (UniProt O14757).
T3 sequence: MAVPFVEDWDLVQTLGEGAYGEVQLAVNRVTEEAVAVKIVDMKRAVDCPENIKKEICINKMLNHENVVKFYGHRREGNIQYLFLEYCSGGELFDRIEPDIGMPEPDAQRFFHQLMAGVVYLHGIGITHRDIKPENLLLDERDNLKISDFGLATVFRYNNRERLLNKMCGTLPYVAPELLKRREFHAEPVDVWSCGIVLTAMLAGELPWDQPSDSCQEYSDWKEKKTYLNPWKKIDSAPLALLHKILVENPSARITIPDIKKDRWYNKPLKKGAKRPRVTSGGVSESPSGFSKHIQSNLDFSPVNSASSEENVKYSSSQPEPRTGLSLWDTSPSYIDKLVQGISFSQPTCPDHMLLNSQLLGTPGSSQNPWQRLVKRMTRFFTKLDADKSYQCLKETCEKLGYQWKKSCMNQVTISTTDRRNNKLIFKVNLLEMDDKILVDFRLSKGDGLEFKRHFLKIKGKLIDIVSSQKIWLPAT
Kind of assay: co-IP; transfected OGT (WT or R17C) with endogenous Chk1.

Assay [4] concerns the target T4, Flag-Chk1 (UniProt O14757).
T4 sequence: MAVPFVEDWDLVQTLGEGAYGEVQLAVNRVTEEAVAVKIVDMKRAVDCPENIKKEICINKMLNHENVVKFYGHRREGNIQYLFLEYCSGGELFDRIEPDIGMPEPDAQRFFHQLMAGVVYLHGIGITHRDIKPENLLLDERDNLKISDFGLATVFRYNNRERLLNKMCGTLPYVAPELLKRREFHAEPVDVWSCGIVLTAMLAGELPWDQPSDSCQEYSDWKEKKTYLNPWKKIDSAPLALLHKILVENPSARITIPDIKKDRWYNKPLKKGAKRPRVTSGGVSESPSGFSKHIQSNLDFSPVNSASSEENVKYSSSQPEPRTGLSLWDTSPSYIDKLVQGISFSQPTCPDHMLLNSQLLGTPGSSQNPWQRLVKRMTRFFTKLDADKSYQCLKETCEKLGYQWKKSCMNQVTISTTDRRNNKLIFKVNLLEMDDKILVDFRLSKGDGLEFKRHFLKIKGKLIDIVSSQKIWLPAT
Kind of assay: co-IP; HEK-293T cells transfected with HA-OGT (WT or R17C) and Flag-Chk1; lysates immunoprecipitated and immunoblotted. For orientation: In western blotting, separated proteins are transferred to a membrane and probed.

Assay [5] concerns the target T5, Recombinant GST-Chk1 (UniProt O14757).
T5 sequence: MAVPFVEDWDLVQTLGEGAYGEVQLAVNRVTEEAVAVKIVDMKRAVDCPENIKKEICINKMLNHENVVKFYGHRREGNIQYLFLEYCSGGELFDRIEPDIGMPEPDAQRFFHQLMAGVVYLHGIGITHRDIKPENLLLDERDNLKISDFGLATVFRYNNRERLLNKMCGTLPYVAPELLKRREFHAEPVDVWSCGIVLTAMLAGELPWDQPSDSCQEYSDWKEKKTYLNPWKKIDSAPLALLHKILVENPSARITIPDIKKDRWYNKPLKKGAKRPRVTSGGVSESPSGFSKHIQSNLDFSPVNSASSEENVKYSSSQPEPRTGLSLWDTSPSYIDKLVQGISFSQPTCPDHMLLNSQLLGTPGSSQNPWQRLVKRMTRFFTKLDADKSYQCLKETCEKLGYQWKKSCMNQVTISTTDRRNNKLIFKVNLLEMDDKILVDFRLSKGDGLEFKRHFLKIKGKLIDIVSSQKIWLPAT
As to the kind of experiment: pull-down; recombinant GST-Chk1 incubated with lysates of cells transfected with HA-OGT-WT or -R17C; GST pulldown; only the target purified.

B1: HA-14-3-3-θ (protein, UniProt P27348 1-245)
chain: MEKTELIQKAKLAEQAERYDDMATCMKAVTEQGAELSNEERNLLSVAYKNVVGGRRSAWRVISSIEQKTDTSDKKLQLIKDYREKVESELRSICTTVLELLDKYLIANATNPESKVFYLKMKGDYFRYLAEVACGDDRKQTIDNSQGAYQEAFDISKKEMQPTHPIRLGLALNFSVFYYEILNNPELACTLAKTAFDEAIAELDTLNEDSYKDSTLIMQLLRDNLTLWTSDSAGEECDAAEGAEN
Consider B1, for which the binding entry in assay [1] and in assay [2] was “binds” in each case.

B2: HA-14-3-3-η (protein, UniProt Q04917 1-246)
chain: MGDREQLLQRARLAEQAERYDDMASAMKAVTELNEPLSNEDRNLLSVAYKNVVGARRSSWRVISSIEQKTMADGNEKKLEKVKAYREKIEKELETVCNDVLSLLDKFLIKNCNDFQYESKVFYLKMKGDYYRYLAEVASGEKKNSVVEASEAAYKEAFEISKEQMQPTHPIRLGLALNFSVFYYEIQNAPEQACLLAKQAFDDAIAELDTLNEDSYKDSTLIMQLLRDNLTLWTSDQQDEEAGEGN
On to B2, for which the binding result in assay [1] and in assay [2] was “binds” each time.

B3: HA-OGT-WT (enzyme, UniProt O15294 1-1046)
chain: MASSVGNVADSTEPTKRMLSFQGLAELAHREYQAGDFEAAERHCMQLWRQEPDNTGVLLLLSSIHFQCRRLDRSAHFSTLAIKQNPLLAEAYSNLGNVYKERGQLQEAIEHYRHALRLKPDFIDGYINLAAALVAAGDMEGAVQAYVSALQYNPDLYCVRSDLGNLLKALGRLEEAKACYLKAIETQPNFAVAWSNLGCVFNAQGEIWLAIHHFEKAVTLDPNFLDAYINLGNVLKEARIFDRAVAAYLRALSLSPNHAVVHGNLACVYYEQGLIDLAIDTYRRAIELQPHFPDAYCNLANALKEKGSVAEAEDCYNTALRLCPTHADSLNNLANIKREQGNIEEAVRLYRKALEVFPEFAAAHSNLASVLQQQGKLQEALMHYKEAIRISPTFADAYSNMGNTLKEMQDVQGALQCYTRAIQINPAFADAHSNLASIHKDSGNIPEAIASYRTALKLKPDFPDAYCNLAHCLQIVCDWTDYDERMKKLVSIVADQLEKNRLPSVHPHHSMLYPLSHGFRKAIAERHGNLCLDKINVLHKPPYEHPKDLKLSDGRLRVGYVSSDFGNHPTSHLMQSIPGMHNPDKFEVFCYALSPDDGTNFRVKVMAEANHFIDLSQIPCNGKAADRIHQDGIHILVNMNGYTKGARNELFALRPAPIQAMWLGYPGTSGALFMDYIITDQETSPAEVAEQYSEKLAYMPHTFFIGDHANMFPHLKKKAVIDFKSNGHIYDNRIVLNGIDLKAFLDSLPDVKIVKMKCPDGGDNADSSNTALNMPVIPMNTIAEAVIEMINRGQIQITINGFSISNGLATTQINNKAATGEEVPRTIIVTTRSQYGLPEDAIVYCNFNQLYKIDPSTLQMWANILKRVPNSVLWLLRFPAVGEPNIQQYAQNMGLPQNRIIFSPVAPKEEHVRRGQLADVCLDTPLCNGHTTGMDVLWAGTPMVTMPGETLASRVAASQLTCLGCLELIAKNRQEYEDIAVKLGTDLEYLKKVRGKVWKQRISSPLFNTKQYTMELERLYLQMWEHYAAGNKPDHMIKPVEVTESA
Take B3: the binding result in assay [3], in assay [4] and in assay [5] was “binds” in each case.

B4: HA-OGT-R17C (enzyme, UniProt O15294 1-1046)
chain: MASSVGNVADSTEPTKCMLSFQGLAELAHREYQAGDFEAAERHCMQLWRQEPDNTGVLLLLSSIHFQCRRLDRSAHFSTLAIKQNPLLAEAYSNLGNVYKERGQLQEAIEHYRHALRLKPDFIDGYINLAAALVAAGDMEGAVQAYVSALQYNPDLYCVRSDLGNLLKALGRLEEAKACYLKAIETQPNFAVAWSNLGCVFNAQGEIWLAIHHFEKAVTLDPNFLDAYINLGNVLKEARIFDRAVAAYLRALSLSPNHAVVHGNLACVYYEQGLIDLAIDTYRRAIELQPHFPDAYCNLANALKEKGSVAEAEDCYNTALRLCPTHADSLNNLANIKREQGNIEEAVRLYRKALEVFPEFAAAHSNLASVLQQQGKLQEALMHYKEAIRISPTFADAYSNMGNTLKEMQDVQGALQCYTRAIQINPAFADAHSNLASIHKDSGNIPEAIASYRTALKLKPDFPDAYCNLAHCLQIVCDWTDYDERMKKLVSIVADQLEKNRLPSVHPHHSMLYPLSHGFRKAIAERHGNLCLDKINVLHKPPYEHPKDLKLSDGRLRVGYVSSDFGNHPTSHLMQSIPGMHNPDKFEVFCYALSPDDGTNFRVKVMAEANHFIDLSQIPCNGKAADRIHQDGIHILVNMNGYTKGARNELFALRPAPIQAMWLGYPGTSGALFMDYIITDQETSPAEVAEQYSEKLAYMPHTFFIGDHANMFPHLKKKAVIDFKSNGHIYDNRIVLNGIDLKAFLDSLPDVKIVKMKCPDGGDNADSSNTALNMPVIPMNTIAEAVIEMINRGQIQITINGFSISNGLATTQINNKAATGEEVPRTIIVTTRSQYGLPEDAIVYCNFNQLYKIDPSTLQMWANILKRVPNSVLWLLRFPAVGEPNIQQYAQNMGLPQNRIIFSPVAPKEEHVRRGQLADVCLDTPLCNGHTTGMDVLWAGTPMVTMPGETLASRVAASQLTCLGCLELIAKNRQEYEDIAVKLGTDLEYLKKVRGKVWKQRISSPLFNTKQYTMELERLYLQMWEHYAAGNKPDHMIKPVEVTESA
With B4, the binding entry in assay [3], in assay [4] and in assay [5] was “binds” each time.

B5: HA-14-3-3-γ (protein, UniProt P61981 1-247)
chain: MVDREQLVQKARLAEQAERYDDMAAAMKNVTELNEPLSNEERNLLSVAYKNVVGARRSSWRVISSIEQKTSADGNEKKIEMVRAYREKIEKELEAVCQDVLSLLDNYLIKNCSETQYESKVFYLKMKGDYYRYLAEVATGEKRATVVESSEKAYSEAHEISKEHMQPTHPIRLGLALNYSVFYYEIQNAPEQACHLAKTAFDDAIAELDTLNEDSYKDSTLIMQLLRDNLTLWTSDQQDDDGGEGNN
In the case of B5, the binding result in assay [1] and in assay [2] was “binds” in each case.
